Values from PubChem BioAssay AID504804 (Drosophila RNAi Screening Center, 2011).

Purpose: 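Fly genes whose loss lessens doxorubicin-driven cell death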 (primary screen)
Cell system: Drosophila Kc cells
Reagent: long dsRNA against Drosophila genes, 0.5 µg dsRNA per well
Time to read-out: 96 h (48 h knock-down, then 48 h drug)
Challenge: doxorubicin 5 µg/ml for 48 h, added 48 h after dsRNA
Measurement: 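Viability measured as cellular ATP by luminescence after 48 h knock-down then 48 h doxorubicin at 5 µg/ml; unnormalised plate counts for each replicate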
Reading the numbers: raw ATP luminescence: higher = more viable cells, protection from doxorubicin
Active means: 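z-score of 2 or more over plate mean in both duplicates, retained only when retests and separate dsRNAs confirm the protection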
The deposit covers about 19,000 reagents; below is a random part of those that have a named target and a result. In the full data, 47 (0.25%) are marked active. 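Signals are raw, not normalised; exact z-scores behind calls not deposited; actives needed confirmation, so some wells reaching 2 SD are inactive.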 Entries without a mark were called inactive. A plus sign joins genes that one reagent is predicted to hit.

| predicted target | amplicon | SD above plate mean | raw ATP luminescence, replicate 1 | raw ATP luminescence, replicate 2 |
| --- | --- | --- | --- | --- |
| Cep164 (centrosomal protein 164) | DRSC20163 | – | 3.51e5 | 2.98e5 |
| Cyp6v1 (Cytochrome P450 6v1) | DRSC20565 | – | 3.73e5 | 3.42e5 |
| PolQ (DNA polymerase theta) | DRSC17006 | – | 50680 | 36570 |
| Septin5 (Septin 5) | DRSC06843 | – | 62887 | 57413 |
| CG5568 | DRSC10518 | – | 43170 | 41770 |
| CG8492 | DRSC10984 | – | 78093 | 79430 |
| CG13707 | DRSC08316 | – | 89313 | 86470 |
| Pop2 | DRSC10537 | – | 39917 | 39890 |
| MYPT-75D (Myosin phosphatase targeting subunit 75D) | DRSC10743 | – | 25293 | 42860 |
| amon (amontillado) | DRSC13784 | – | 1.94e5 | 2.00e5 |
| amon (amontillado) | DRSC16900 | – | 38090 | 37520 |
| CG14000 + bchs | DRSC02333 | – | 34737 | 42780 |
| Kpc1 (Kip1 ubiquitination-promoting complex subunit 1) | DRSC16107 | – | 44757 | 38297 |
| Pde9 (Phosphodiesterase 9) | DRSC19746 | – | 3.24e5 | 2.80e5 |
| Pde9 (Phosphodiesterase 9) | DRSC19874 | – | 3.64e5 | 3.17e5 |
| Pde9 (Phosphodiesterase 9) | DRSC19875 | – | 3.35e5 | 3.51e5 |
| Pde9 (Phosphodiesterase 9) | DRSC19876 | – | 3.40e5 | 3.82e5 |
| Lcp65Af | DRSC11213 | – | 76097 | 84790 |
| l(2)41Ab (lethal (2) 41Ab) | DRSC21007 | – | 1.95e5 | 2.16e5 |
| CG9205 | DRSC08642 | – | 61067 | 71197 |
| CG32642 | DRSC18959 | – | 2.23e5 | 2.40e5 |
| mip130 (Myb-interacting protein 130) | DRSC18575 | – | 57670 | 61870 |
| ng2 (new glue 2) | DRSC18803 | – | 67120 | 67870 |
| GluClalpha (Glutamate-gated chloride channel subunit alpha) | DRSC16680 | – | 64860 | 53200 |
| Mvl (Malvolio) | DRSC16752 | – | 38303 | 38387 |
| Jhbp16 (Juvenile hormone binding protein 16) | DRSC15039 | – | 49850 | 46560 |
| CG14270 | DRSC17913 | – | 46010 | 39030 |
| CG13607 | DRSC14610 | – | 62060 | 60650 |
| gammaTub23C (gamma-Tubulin at 23C) | DRSC00820 | – | 1.19e5 | 55243 |
| brv2 (brivido-2) | DRSC10226 | – | 43640 | 40837 |
| Ctu1 (Cytosolic thiouridylase subunit 1) | DRSC07069 | – | 34560 | 66013 |
| CG10747 | DRSC02104 | – | 51763 | 54647 |
| Ugt302C1 (UDP-glycosyltransferase family 302 member C1) | DRSC15353 | – | 48047 | 23240 |
| ppk3 (pickpocket 3) | DRSC04275 | – | 39603 | 52193 |
| CG15020 | DRSC08474 | – | 60873 | 78523 |
| Use1 (Unconventional SNARE in the ER 1) | DRSC10180 | – | 59703 | 70927 |
| CG31161 | DRSC16144 | – | 61420 | 59940 |
| Cpr66Cb (Cuticular protein 66Cb) | DRSC10769 | – | 78883 | 73367 |
| Ir7b (Ionotropic receptor 7b) | DRSC18009 | – | 34100 | 36000 |
| CngB (Cyclic nucleotide-gated ion channel subunit B) | DRSC04297 | – | 51557 | 49830 |
| msl-3 (male-specific lethal 3) | DRSC11371 | – | 85507 | 91433 |
| Nep3 (Neprilysin 3) | DRSC20685 | – | 3.40e5 | 3.27e5 |
| RyR (Ryanodine receptor) | DRSC07543 | – | 47037 | 79273 |
| dcma (decima) | DRSC00246 | – | 3.36e5 | 3.05e5 |
| dcma (decima) | DRSC00338 | – | 30210 | 36917 |
| CG10510 | DRSC11614 | – | 34473 | 39137 |
| E(spl)m4-BFM (Enhancer of split m4, Bearded family member) | DRSC16992 | – | 68760 | 57740 |
| CG7148 | DRSC11802 | – | 20577 | 19363 |
| Chd64 | DRSC08649 | – | 34893 | 32443 |
| pea (peanuts) | DRSC07120 | – | 68013 | 57263 |
| ref(2)P (refractory to sigma P) | DRSC03601 | – | 63567 | 49887 |
| CG31050 | DRSC13883 | – | 2.46e5 | 2.24e5 |
| CG13700 | DRSC10049 | – | 74387 | 46130 |
| ImpL2 (Ecdysone-inducible gene L2) | DRSC08666 | – | 36063 | 34853 |
| CG4017 | DRSC02733 | – | 42443 | 78810 |
| Cerk (Ceramide kinase) | DRSC12285 | – | 47257 | 19217 |
| CG3652 | DRSC00624 | – | 28780 | 27663 |
| Vm34Ca (Vitelline membrane 34Ca) | DRSC03475 | – | 73423 | 69180 |
| PIP4K (Phosphatidylinositol 5-phosphate 4-kinase) | DRSC17213 | – | 41200 | 51630 |
| CG34135 + Nasp | DRSC16397 | – | 60670 | 57377 |
| su(sable) (suppressor of sable) | DRSC18839 | – | 41860 | 46470 |
| hh (hedgehog) | DRSC16965 | – | 70110 | 69010 |
| hgo (homogentisate 1,2-dioxygenase) | DRSC03544 | – | 39187 | 69953 |
| Rtel1 (Regulator of telomere elongation helicase 1) | DRSC18343 | – | 45370 | 47010 |
| Galphas (G protein alpha subunit s) | DRSC04616 | – | 74510 | 66650 |
| Arp3 (Actin-related protein 3) | DRSC09669 | – | 49113 | 36380 |
| CG7011 + Prp31 | DRSC10760 | – | 23753 | 21087 |
| CG10934 | DRSC06017 | – | 61110 | 56647 |
| CG6180 | DRSC02937 | – | 81613 | 58550 |
| CG12744 | DRSC06164 | – | 73587 | 60040 |
| Cpr73D (Cuticular protein 73D) | DRSC11084 | – | 25280 | 23383 |
| Cdk4 (Cyclin-dependent kinase 4) | DRSC07358 | – | 52150 | 55297 |
| CG17147 | DRSC10249 | – | 56543 | 55120 |
| yuri (yuri gagarin) | DRSC01453 | – | 2.81e5 | 2.77e5 |
| yuri (yuri gagarin) | DRSC01454 | – | 2.52e5 | 2.10e5 |
| yuri (yuri gagarin) | DRSC01943 | – | 64977 | 72820 |
| yuri (yuri gagarin) | DRSC01972 | – | 1.02e5 | 65527 |
| ago (archipelago) | DRSC08463 | – | 29887 | 34413 |
| CG32195 | DRSC09533 | – | 90633 | 89693 |
| CG12278 | DRSC14494 | – | 70000 | 48650 |
| CG15293 | DRSC01919 | – | 75850 | 77280 |
| CG14109 | DRSC10112 | – | 73510 | 68633 |
| Gdi (GDP dissociation inhibitor) | DRSC03330 | – | 94567 | 70023 |
| Vm26Ab (Vitelline membrane 26Ab) | DRSC03473 | – | 24357 | 22203 |
| Ppt2 (Palmitoyl-protein Thioesterase 2) | DRSC02786 | – | 1.07e5 | 88007 |
| Pex5 (Peroxin 5) | DRSC18552 | – | 42980 | 53910 |
| CG41020 (retired record) | DRSC20866 | – | 2.05e5 | 1.95e5 |
| mRpL52 (mitochondrial ribosomal protein L52) | DRSC06585 | – | 45700 | 88440 |
| CG15147 | DRSC02447 | – | 77607 | 87003 |
| CG15147 | DRSC02448 | 2 to 3 SD above plate mean (active) | 93140 | 1.21e5 |
| CG31560 | DRSC12136 | – | 69663 | 65117 |
| CG11109 | DRSC11633 | – | 36810 | 23977 |
| CG3650 | DRSC04401 | – | 39203 | 60993 |
| CG17134 | DRSC02583 | – | 44810 | 71020 |
| CG34032 (retired record) | DRSC09225 | – | 70507 | 93143 |
| rsh (radish) | DRSC18966 | – | 2.23e5 | 2.20e5 |
| rsh (radish) | DRSC19816 | – | 1.19e5 | 1.19e5 |
| CG13793 | DRSC02297 | – | 72003 | 85513 |
| CG12951 | DRSC14579 | – | 44363 | 55913 |
| CG8950 | DRSC07300 | – | 68560 | 72450 |
| azot (ahuizotl) | DRSC06051 | – | 40213 | 68747 |
| G9a | DRSC18619 | – | 61390 | 44620 |
| Fam92 | DRSC02952 | – | 84840 | 60317 |
| Saf6 (SAGA factor-like TAF6) | DRSC00633 | – | 93503 | 64247 |
| SdhCL (Succinate dehydrogenase, subunit C-like) | DRSC16078 | – | 45587 | 45877 |
| SCOT (Succinyl-CoA:3-ketoacid CoA transferase) | DRSC08186 | – | 58007 | 60747 |
| CG8813 | DRSC00706 | – | 1.23e5 | 85147 |

18 entries already listed, ordered by “raw ATP luminescence, replicate 2”, descending.
| predicted target | amplicon | SD above plate mean | raw ATP luminescence, replicate 1 | raw ATP luminescence, replicate 2 |
| --- | --- | --- | --- | --- |
| yuri (yuri gagarin) | DRSC01453 | – | 2.81e5 | 2.77e5 |
| yuri (yuri gagarin) | DRSC01454 | – | 2.52e5 | 2.10e5 |
| CG32195 | DRSC09533 | – | 90633 | 89693 |
| yuri (yuri gagarin) | DRSC01943 | – | 64977 | 72820 |
| hgo (homogentisate 1,2-dioxygenase) | DRSC03544 | – | 39187 | 69953 |
| hh (hedgehog) | DRSC16965 | – | 70110 | 69010 |
| Galphas (G protein alpha subunit s) | DRSC04616 | – | 74510 | 66650 |
| yuri (yuri gagarin) | DRSC01972 | – | 1.02e5 | 65527 |
| CG12744 | DRSC06164 | – | 73587 | 60040 |
| CG6180 | DRSC02937 | – | 81613 | 58550 |
| CG10934 | DRSC06017 | – | 61110 | 56647 |
| Cdk4 (Cyclin-dependent kinase 4) | DRSC07358 | – | 52150 | 55297 |
| CG17147 | DRSC10249 | – | 56543 | 55120 |
| Rtel1 (Regulator of telomere elongation helicase 1) | DRSC18343 | – | 45370 | 47010 |
| Arp3 (Actin-related protein 3) | DRSC09669 | – | 49113 | 36380 |
| ago (archipelago) | DRSC08463 | – | 29887 | 34413 |
| Cpr73D (Cuticular protein 73D) | DRSC11084 | – | 25280 | 23383 |
| CG7011 + Prp31 | DRSC10760 | – | 23753 | 21087 |
